The values that follow come from publication doi:10.1101/2023.12.10.570965.

Amino acid sequences for entries named in this document (tags omitted).
UniProt Q86WV6: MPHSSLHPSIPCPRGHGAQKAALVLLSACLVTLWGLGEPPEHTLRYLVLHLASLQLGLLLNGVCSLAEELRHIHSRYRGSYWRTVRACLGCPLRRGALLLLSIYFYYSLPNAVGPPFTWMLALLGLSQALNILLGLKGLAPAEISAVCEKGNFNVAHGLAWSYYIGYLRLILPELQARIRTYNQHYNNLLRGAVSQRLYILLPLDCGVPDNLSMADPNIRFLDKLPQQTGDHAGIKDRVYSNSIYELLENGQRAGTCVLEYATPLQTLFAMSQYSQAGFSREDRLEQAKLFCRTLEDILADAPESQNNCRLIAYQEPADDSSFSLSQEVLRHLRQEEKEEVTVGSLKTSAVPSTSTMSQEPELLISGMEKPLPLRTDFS
UniProt Q8N884: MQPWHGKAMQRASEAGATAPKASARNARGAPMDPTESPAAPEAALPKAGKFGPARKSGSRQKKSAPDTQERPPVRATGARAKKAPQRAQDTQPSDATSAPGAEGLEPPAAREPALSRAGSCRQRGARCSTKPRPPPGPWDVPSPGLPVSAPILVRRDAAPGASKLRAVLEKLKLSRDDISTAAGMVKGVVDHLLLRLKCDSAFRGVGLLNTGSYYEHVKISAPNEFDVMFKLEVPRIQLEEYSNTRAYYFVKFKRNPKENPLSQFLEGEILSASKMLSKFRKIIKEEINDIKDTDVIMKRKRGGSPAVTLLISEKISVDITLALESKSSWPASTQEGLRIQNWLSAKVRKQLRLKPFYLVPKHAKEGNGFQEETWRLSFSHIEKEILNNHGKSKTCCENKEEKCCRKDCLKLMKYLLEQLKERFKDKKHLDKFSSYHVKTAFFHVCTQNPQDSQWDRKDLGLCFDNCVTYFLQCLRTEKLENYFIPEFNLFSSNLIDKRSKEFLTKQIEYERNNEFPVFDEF
UniProt Q7Z434: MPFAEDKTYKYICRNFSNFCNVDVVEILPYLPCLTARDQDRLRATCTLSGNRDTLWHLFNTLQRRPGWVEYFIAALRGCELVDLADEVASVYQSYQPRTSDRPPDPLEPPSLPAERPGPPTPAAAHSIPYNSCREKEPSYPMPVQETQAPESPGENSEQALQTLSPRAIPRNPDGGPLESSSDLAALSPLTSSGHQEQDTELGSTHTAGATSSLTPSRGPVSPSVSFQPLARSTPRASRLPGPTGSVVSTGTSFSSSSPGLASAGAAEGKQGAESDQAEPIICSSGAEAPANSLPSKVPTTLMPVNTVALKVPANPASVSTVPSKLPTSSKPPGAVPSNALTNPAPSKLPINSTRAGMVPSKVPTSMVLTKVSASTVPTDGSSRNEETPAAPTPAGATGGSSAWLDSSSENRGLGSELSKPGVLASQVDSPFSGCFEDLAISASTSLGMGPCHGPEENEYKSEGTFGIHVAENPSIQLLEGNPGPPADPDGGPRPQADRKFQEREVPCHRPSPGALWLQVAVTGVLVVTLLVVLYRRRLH

Assay [1] deals with T1, endogenous MAVS of mouse lung (mouse (endogenous in lung tissue)) (UniProt Q8VCF0).
T1 sequence: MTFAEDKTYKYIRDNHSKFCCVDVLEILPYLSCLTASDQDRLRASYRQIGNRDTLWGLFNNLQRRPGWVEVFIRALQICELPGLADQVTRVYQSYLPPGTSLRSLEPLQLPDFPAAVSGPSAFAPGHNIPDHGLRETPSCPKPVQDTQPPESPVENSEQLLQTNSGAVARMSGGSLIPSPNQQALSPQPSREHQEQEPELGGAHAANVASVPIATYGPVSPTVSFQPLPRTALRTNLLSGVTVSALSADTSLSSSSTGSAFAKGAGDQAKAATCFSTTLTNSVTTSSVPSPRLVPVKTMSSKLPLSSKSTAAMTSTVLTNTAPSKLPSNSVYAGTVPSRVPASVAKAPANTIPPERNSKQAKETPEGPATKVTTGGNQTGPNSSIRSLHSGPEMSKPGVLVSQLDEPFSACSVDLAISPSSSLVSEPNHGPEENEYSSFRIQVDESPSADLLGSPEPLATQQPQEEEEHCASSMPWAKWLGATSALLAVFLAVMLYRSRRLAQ
Kind of assay: co-IP.

For assay [2], the target named is Flag-tagged stimulator of interferon genes (STING) (UniProt Q86WV6). Nature of the assay: co-IP.
The target in assay [3] is Flag-tagged cyclic GMP-AMP synthase (cGAS) (UniProt Q8N884). Kind of assay: co-IP.
The target of assay [4] is Flag-tagged mitochondrial antiviral signaling protein (MAVS) (UniProt Q7Z434). Nature of the assay: co-IP.
Assay [5] has as its target MAVS, in vitro transcribed and translated (UniProt Q7Z434). Nature of the assay: pull-down.

Results are given in words; binding and its absence hold for the method and conditions named. Binding seen in cells or lysates may run through a third protein. Some binding calls cover weakened binding; strength is not graded here. For some assays here: Where a sequence is shown, tags or fusion partners need not be part of it.

B1: endogenous ASB3 of mouse lung (protein, UniProt Q9WV72 1-525)
chain: MDFTEAYSDTCSTVGLAAREGNVKILRKLLKKGRSVDVADNRGWMPIHEAAYHNAVECLQMLIHTDSSENYIKAKTFEGFCALHLAVSQGHWKITQILLEAGADPNETTLEETTPLFLAVESGRIDVLKLLLQHGANVNGSHSMSGWNSLHQASFQGNAETIRLLLKQGADRECQDDFGITPLFVAAQYGKLESMSILISSGANVNCQALDKATPLFIAAQEGHTKCVELLLSSGADPDLYCNEDNWQLPIHAAAQMGHTETLDLLIPRTNRACDTGPDKVSPVYSAVFGGREECLEMLLQNGYSPDAQMCLVFGFSSPLCMAFQKDCDFSGIVNILLKYGAQLNELHLAYCLKYEKFSMFCSFLKKGSLMVPWNHTSEFISYAVKAQTKYKAWLPHLLLAGFDPLILLCSSSWVDSASDDILIFTLEFSNWKRLPSAVEKMLSVRANSSWALQQHLASVPSLTHLCRLEIRASLKAEHLHSDIFIHQLPLPRSLQNYLLYEEVLRMNEILEPAANQDGETSKAT
Consider B1, for which the binding result in assay [1] was “binds”.

B2: HA-tagged Ankyrin repeat and SOCS box-containing protein 3 (ASB3) (protein, UniProt Q9Y575 1-518)
chain: MDFTEAYADTCSTVGLAAREGNVKVLRKLLKKGRSVDVADNRGWMPIHEAAYHNSVECLQMLINADSSENYIKMKTFEGFCALHLAASQGHWKIVQILLEAGADPNATTLEETTPLFLAVENGQIDVLRLLLQHGANVNGSHSMCGWNSLHQASFQENAEIIKLLLRKGANKECQDDFGITPLFVAAQYGKLESLSILISSGANVNCQALDKATPLFIAAQEGHTKCVELLLSSGADPDLYCNEDSWQLPIHAAAQMGHTKILDLLIPLTNRACDTGLNKVSPVYSAVFGGHEDCLEILLRNGYSPDAQACLVFGFSSPVCMAFQKDCEFFGIVNILLKYGAQINELHLAYCLKYEKFSIFRYFLRKGCSLGPWNHIYEFVNHAIKAQAKYKEWLPHLLVAGFDPLILLCNSWIDSVSIDTLIFTLEFTNWKTLAPAVERMLSARASNAWILQQHIATVPSLTHLCRLEIRSSLKSERLRSDSYISQLPLPRSLHNYLLYEDVLRMYEVPELAAIQDG
In the case of B2, the binding result in assay [2] is on record as “no binding”; in assay [3], “no binding”; in assay [4] it was “binds”.

B3: ASB3, in vitro transcribed and translated (protein, UniProt Q9Y575 1-518)
chain: MDFTEAYADTCSTVGLAAREGNVKVLRKLLKKGRSVDVADNRGWMPIHEAAYHNSVECLQMLINADSSENYIKMKTFEGFCALHLAASQGHWKIVQILLEAGADPNATTLEETTPLFLAVENGQIDVLRLLLQHGANVNGSHSMCGWNSLHQASFQENAEIIKLLLRKGANKECQDDFGITPLFVAAQYGKLESLSILISSGANVNCQALDKATPLFIAAQEGHTKCVELLLSSGADPDLYCNEDSWQLPIHAAAQMGHTKILDLLIPLTNRACDTGLNKVSPVYSAVFGGHEDCLEILLRNGYSPDAQACLVFGFSSPVCMAFQKDCEFFGIVNILLKYGAQINELHLAYCLKYEKFSIFRYFLRKGCSLGPWNHIYEFVNHAIKAQAKYKEWLPHLLVAGFDPLILLCNSWIDSVSIDTLIFTLEFTNWKTLAPAVERMLSARASNAWILQQHIATVPSLTHLCRLEIRSSLKSERLRSDSYISQLPLPRSLHNYLLYEDVLRMYEVPELAAIQDG
With B3, in assay [5], the binding result is listed as “binds”.
